Consider 17 targets from the supplement of paper PMC10849652.

Sequences of proteins named here, by UniProt entry; tags and fusion partners are left off. A change or cut given only in a name is not applied to a line headed by its entry.
UniProt Q9UL54: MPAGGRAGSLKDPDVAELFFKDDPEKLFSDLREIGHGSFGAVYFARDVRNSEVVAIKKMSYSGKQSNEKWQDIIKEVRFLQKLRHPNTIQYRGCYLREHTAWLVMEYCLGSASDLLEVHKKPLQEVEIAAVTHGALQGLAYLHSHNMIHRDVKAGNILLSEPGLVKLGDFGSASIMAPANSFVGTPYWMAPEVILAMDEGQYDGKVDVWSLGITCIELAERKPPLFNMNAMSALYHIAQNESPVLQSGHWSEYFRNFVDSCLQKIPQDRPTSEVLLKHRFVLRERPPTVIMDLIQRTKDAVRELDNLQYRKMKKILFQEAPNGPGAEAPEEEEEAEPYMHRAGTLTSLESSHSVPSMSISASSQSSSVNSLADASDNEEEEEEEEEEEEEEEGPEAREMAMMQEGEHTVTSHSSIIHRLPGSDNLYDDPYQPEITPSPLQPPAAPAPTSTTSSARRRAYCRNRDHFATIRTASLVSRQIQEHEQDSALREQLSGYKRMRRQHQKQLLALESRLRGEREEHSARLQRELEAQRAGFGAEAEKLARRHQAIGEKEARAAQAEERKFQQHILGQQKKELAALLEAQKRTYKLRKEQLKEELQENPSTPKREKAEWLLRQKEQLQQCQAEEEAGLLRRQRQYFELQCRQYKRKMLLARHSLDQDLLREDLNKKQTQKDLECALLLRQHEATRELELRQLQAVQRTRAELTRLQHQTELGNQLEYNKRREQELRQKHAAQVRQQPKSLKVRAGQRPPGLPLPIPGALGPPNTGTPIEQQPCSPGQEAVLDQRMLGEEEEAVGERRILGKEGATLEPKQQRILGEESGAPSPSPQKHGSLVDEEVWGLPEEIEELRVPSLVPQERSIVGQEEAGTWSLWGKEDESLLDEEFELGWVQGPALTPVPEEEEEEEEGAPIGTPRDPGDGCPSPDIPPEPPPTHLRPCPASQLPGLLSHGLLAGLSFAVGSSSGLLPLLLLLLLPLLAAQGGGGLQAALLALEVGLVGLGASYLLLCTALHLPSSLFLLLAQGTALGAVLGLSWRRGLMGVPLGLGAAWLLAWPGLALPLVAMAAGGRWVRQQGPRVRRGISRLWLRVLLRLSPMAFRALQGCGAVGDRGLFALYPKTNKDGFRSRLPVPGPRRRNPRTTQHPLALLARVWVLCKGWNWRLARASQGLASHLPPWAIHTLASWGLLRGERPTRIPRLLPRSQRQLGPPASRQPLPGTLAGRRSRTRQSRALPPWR
UniProt Q8IYN2: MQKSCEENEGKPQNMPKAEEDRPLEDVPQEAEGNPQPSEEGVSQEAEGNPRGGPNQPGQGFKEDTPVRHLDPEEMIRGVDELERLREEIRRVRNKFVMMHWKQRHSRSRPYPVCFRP
UniProt P0C1Z6, whole entry, looked up: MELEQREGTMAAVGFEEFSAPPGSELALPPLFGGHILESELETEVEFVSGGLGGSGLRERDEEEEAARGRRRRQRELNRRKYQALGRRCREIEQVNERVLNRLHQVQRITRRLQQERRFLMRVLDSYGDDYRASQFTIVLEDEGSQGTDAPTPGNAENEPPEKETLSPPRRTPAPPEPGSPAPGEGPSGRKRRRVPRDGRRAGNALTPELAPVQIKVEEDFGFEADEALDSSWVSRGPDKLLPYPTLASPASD
UniProt P19484: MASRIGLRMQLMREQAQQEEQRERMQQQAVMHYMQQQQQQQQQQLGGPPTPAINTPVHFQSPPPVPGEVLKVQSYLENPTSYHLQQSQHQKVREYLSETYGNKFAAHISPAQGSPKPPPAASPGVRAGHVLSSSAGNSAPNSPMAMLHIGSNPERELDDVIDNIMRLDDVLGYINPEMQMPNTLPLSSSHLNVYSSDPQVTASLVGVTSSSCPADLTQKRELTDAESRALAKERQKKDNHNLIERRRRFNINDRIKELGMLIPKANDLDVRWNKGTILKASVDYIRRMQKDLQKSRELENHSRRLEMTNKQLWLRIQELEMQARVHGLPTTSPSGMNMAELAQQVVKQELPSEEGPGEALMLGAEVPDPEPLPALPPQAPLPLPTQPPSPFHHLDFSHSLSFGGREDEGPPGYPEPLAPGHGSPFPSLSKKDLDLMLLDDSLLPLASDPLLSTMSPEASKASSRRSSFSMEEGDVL
UniProt A7MCY6, whole entry, looked up: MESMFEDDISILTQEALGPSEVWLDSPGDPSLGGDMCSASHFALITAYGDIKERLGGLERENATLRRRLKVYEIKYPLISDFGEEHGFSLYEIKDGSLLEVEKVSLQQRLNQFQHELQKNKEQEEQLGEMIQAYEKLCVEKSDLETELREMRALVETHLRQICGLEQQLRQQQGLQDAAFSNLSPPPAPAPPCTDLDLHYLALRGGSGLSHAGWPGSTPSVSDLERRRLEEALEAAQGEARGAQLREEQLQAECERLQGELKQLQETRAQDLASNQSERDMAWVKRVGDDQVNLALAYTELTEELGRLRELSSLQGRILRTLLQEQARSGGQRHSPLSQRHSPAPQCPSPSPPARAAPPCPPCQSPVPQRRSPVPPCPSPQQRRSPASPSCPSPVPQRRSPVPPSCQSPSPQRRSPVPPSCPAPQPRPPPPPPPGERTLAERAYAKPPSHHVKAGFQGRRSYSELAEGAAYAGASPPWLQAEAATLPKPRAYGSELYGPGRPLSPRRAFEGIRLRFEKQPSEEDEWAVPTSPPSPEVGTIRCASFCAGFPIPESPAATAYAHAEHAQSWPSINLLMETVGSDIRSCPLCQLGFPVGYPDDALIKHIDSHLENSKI
UniProt P42680: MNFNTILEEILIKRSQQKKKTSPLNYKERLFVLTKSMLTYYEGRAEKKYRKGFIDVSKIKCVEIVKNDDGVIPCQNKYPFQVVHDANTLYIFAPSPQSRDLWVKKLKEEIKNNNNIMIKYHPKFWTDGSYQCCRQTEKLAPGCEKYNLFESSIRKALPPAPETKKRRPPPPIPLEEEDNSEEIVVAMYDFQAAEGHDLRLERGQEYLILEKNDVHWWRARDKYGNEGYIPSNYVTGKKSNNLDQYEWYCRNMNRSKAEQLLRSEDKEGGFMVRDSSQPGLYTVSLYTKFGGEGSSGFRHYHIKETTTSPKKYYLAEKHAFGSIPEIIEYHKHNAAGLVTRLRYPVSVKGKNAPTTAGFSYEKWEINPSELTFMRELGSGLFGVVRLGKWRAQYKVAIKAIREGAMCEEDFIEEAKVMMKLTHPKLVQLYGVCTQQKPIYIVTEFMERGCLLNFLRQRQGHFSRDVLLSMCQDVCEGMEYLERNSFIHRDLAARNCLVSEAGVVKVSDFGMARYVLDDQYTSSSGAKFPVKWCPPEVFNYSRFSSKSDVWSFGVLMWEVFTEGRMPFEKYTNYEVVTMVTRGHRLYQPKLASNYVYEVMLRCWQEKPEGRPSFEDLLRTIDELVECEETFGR
UniProt P24557: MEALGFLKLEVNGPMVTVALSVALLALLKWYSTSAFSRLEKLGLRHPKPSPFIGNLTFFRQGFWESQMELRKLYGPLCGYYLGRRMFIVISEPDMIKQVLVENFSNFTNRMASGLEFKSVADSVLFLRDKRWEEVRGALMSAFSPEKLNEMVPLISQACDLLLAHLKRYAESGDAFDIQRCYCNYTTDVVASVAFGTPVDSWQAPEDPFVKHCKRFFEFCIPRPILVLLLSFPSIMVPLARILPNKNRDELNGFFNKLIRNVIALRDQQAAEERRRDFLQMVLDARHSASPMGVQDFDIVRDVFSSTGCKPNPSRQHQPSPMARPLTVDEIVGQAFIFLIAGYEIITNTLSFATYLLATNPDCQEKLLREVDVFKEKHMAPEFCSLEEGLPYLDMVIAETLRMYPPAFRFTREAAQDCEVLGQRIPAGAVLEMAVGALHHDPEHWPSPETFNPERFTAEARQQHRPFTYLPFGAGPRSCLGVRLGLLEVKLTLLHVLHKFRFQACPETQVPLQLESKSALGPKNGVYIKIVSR
UniProt Q9H6P5: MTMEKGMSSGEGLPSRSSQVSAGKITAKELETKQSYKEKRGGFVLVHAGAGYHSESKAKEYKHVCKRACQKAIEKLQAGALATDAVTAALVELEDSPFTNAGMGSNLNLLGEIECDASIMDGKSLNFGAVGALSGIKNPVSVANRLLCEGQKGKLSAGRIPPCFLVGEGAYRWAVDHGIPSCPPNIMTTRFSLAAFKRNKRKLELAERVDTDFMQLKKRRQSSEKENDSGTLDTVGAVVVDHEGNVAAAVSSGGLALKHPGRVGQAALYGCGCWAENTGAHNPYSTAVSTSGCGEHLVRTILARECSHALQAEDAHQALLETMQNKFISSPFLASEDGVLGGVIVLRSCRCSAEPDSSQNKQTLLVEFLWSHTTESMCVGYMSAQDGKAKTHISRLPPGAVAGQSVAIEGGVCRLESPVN
UniProt Q86SX3: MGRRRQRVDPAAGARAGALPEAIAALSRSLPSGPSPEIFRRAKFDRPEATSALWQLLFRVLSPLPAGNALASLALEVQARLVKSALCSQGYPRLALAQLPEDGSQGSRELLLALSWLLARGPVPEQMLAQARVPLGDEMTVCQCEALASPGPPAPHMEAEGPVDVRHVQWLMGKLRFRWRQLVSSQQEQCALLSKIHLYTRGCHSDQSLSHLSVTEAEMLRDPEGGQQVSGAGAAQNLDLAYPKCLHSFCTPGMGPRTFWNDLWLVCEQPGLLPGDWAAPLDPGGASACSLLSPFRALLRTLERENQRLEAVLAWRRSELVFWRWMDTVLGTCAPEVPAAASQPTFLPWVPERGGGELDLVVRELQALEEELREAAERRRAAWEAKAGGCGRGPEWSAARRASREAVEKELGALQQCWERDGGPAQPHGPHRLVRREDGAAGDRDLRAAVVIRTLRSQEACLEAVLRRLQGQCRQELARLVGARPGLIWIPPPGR
UniProt Q9UHQ7: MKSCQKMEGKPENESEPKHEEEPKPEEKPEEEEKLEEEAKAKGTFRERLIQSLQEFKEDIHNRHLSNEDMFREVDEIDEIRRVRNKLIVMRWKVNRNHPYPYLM
UniProt Q15560: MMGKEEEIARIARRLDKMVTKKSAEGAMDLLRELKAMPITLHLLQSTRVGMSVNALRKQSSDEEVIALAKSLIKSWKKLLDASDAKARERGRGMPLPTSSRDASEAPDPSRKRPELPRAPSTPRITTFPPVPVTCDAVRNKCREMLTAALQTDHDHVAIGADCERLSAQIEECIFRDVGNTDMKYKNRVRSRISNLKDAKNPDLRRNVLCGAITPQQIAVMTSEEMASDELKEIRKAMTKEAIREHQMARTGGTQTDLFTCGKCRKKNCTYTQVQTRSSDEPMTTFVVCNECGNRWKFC
UniProt Q86VP1, whole entry, looked up: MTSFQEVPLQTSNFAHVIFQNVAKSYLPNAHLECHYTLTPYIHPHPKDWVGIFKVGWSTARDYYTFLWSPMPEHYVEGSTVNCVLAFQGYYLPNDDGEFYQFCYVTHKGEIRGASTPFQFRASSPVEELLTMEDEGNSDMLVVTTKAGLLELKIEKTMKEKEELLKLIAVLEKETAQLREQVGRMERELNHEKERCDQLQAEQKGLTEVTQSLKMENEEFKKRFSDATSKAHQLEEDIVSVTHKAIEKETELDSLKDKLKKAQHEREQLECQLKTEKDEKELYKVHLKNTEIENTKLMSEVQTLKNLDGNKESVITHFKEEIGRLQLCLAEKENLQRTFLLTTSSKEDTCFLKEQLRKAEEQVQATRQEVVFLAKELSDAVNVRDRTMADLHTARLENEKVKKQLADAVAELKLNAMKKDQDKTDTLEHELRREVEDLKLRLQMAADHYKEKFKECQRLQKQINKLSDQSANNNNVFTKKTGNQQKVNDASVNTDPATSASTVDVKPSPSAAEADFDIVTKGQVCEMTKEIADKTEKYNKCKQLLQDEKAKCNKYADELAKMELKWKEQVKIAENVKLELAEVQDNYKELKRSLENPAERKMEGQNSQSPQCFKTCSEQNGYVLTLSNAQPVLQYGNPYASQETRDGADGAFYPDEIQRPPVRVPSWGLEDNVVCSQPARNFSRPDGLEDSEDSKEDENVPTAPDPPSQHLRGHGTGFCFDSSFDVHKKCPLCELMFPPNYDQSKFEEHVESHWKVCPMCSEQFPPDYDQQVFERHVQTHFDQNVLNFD
UniProt O15533, whole entry, looked up: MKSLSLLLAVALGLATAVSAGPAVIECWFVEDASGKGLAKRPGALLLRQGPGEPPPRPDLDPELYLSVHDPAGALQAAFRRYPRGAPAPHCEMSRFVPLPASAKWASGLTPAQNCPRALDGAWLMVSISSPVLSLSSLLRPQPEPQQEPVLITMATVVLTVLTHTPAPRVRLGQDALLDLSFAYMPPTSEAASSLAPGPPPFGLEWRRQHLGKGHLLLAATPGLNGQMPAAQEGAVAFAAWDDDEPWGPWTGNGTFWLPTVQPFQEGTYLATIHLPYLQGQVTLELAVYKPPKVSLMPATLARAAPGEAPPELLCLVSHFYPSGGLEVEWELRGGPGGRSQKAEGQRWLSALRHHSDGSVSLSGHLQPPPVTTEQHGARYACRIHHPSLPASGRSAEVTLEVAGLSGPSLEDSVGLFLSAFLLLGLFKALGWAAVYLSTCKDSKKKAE

The list shows a part of the results.

Common to all, as to assay: log2 fold change, soluble protein after heating vs DMSO (PISA); higher = thermal stabilisation; K562 lysate, 10 uM; active = over 0.2 and 3.5 SD of the protein, either way, in both replicates (recomputed)
Compound in one assay: COc1cc(Nc2ncc3c(n2)-c2ccc(Cl)cc2C(c2c(F)cccc2OC)=NC3)ccc1C(=O)O [alisertib]
The gist of the method: (§1)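 A 30 min treatment with 10 μM compound was applied to crude K562 extract at 1 mg/mL protein in PBS pH 7.4 with 1 mM MgCl2. Heating for 3 min spanned 48°C-58°C, after which aliquots were pooled, adjusted to 0.5% NP-40 at 4°C and spun at 21,000xg for 90 min. TMTpro 16plex LC-MS/MS of the supernatant, with channel sums equalised, gave values recorded as log-two fold change in thermal stability against solvent controls, from duplicates.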

Compound in a further assay: COc1cc2ncnc(Nc3ccc(F)c(Cl)c3)c2cc1OCCCN1CCOCC1 [gefitinib]
The method, boiled down: as §1

Compound in another assay: CNC(=O)c1ccc(Nc2ncc(C(F)(F)F)c(NCc3nccnc3N(C)S(C)(=O)=O)n2)cc1 [defactinib]
The gist of the method: as §1

Compound in assay [1]: CNc1nc(-c2ccc3c(N)n[nH]c3c2)cc(N2C[C@@H](C(=O)NC3CCCCC3)CC[C@H]2C)n1
The method, boiled down:
as §1

Compound in the next assay: COC(=O)N[C@@H](C)CNc1nccc(-c2cn(C(C)C)nc2-c2cc(Cl)cc(NS(C)(=O)=O)c2F)n1 [encorafenib]
The gist of the method:
as §1

Compound in assay [2]: COC(=O)[C@H](CCSC)NC(=O)C1=C(C=C(C=C1)NC[C@H](CS)N)C2=CC=CC=C2
The gist of the method: as §1

Compound in another assay: C[C@@H](Oc1cc(-c2cnn(C3CCNCC3)c2)cnc1N)c1c(Cl)ccc(F)c1Cl [crizotinib]
The gist of the method: as §1

Compound in a further assay: C[C@H](Nc1ncnc2nc[nH]c12)c1cc2cccc(Cl)c2c(=O)n1-c1ccccc1 [duvelisib]
The method, boiled down:
as §1

Compound in another assay: Cc1cc(Nc2cc(N3CCN(C)CC3)nc(Sc3ccc(NC(=O)C4CC4)cc3)n2)n[nH]1 [tozasertib]
The gist of the method: as §1

Compound in a further assay: Cc1ccc(-n2nc(C(C)(C)C)cc2NC(=O)Nc2ccc(OCCN3CCOCC3)c3ccccc23)cc1 [doramapimod]
The method, boiled down: as §1

Compound in assay [3]: CNC(=O)C1=CC=CC=C1NC2=NC(=NC=C2Cl)NC3=C(C=C(C=C3)N4CCOCC4)OC
The gist of the method: as §1

Compound in assay [4]: COc1cc2nc(-c3cc(F)ccc3O)nc(N[C@@H]3CNC[C@H]3C(C)(C)O)c2cc1OC
The gist of the method:
as §1

Compound in a further assay: CS(=O)(=O)CCNCc1ccc(-c2ccc3ncnc(Nc4ccc(OCc5cccc(F)c5)c(Cl)c4)c3c2)o1 [lapatinib]
The gist of the method:
as §1

Compound in a further assay: CS(=O)(=O)N1CCN(Cc2cc3nc(-c4cccc5[nH]ncc45)nc(N4CCOCC4)c3s2)CC1 [pictilisib]
The method, boiled down:
as §1

Compound in another assay: Cc1ccc(NC(=O)c2ccc(CN3CC[C@H](N(C)C)C3)c(C(F)(F)F)c2)cc1Nc1nccc(-c2cncnc2)n1 [bafetinib]
The method, boiled down: as §1

Compound in another assay: CN1CCc2c(c3ccccc3n2Cc2ccc(C(=O)NO)cc2)C1 [Tubastatin A]
The method, boiled down:
as §1

For TAOK2 isoform 2 (UniProt Q9UL54), the log2 fold change with alisertib is inactive: -0.046; with gefitinib, inactive: -0.202.
For TCEAL8 (UniProt Q8IYN2), the log2 fold change with defactinib is inactive: 0.028; in [1], inactive: 0.111; with encorafenib, inactive: -0.096; in assay [2], inactive: -0.072; with crizotinib, inactive: 0.031; with duvelisib, inactive: -0.137. The log2 fold change with tozasertib is inactive: 0.078; with doramapimod, inactive: -0.047.
For TFPT (UniProt P0C1Z6), the log2 fold change in assay [3] was inactive: -0.041; in assay [1], active: 0.381; in assay [4] it was inactive: 0.027; with lapatinib, inactive: -0.004; in the assay with pictilisib, inactive: 0.032; in the assay with duvelisib, inactive: -0.005. Moreover, in the assay with bafetinib, the log2 fold change is inactive: -0.004.
Regarding TFEB (UniProt P19484), the log2 fold change in the assay with defactinib is inactive: -0.172; with alisertib, inactive: 0.007; in the assay with gefitinib, inactive: 0.075; in the assay with crizotinib, inactive: -0.05; in the assay with doramapimod it was inactive: 0.057.
Regarding TATDN1 isoform 2 (UniProt Q6P1N9), the log2 fold change in the assay with Tubastatin A is inactive: 0.168; in assay [3], inactive: 0; with defactinib, inactive: -0.088; in [4] it was inactive: 0.021; in the assay with lapatinib, inactive: 0.029; in the assay with pictilisib it was inactive: -0.057. Also, the log2 fold change with crizotinib is inactive: -0.069; in the assay with doramapimod, inactive: -0.029; in the assay with bafetinib it was inactive: -0.123.
Regarding TBKBP1 (UniProt A7MCY6), the results for the log2 fold change with pictilisib and with bafetinib were inactive: 0.073 and inactive: -0.159, respectively.
For TEC (UniProt P42680), the log2 fold change with defactinib was inactive: 0.07; with encorafenib, inactive: -0.044; in assay [2], inactive: -0.036; with alisertib, inactive: -0.086; in assay [4] it was inactive: -0.028; with gefitinib, inactive: -0.027. In addition, the results for the log2 fold change in the assay with lapatinib and with tozasertib were inactive: 0.007 and inactive: -0.198, respectively.
As to TBXAS1 isoform 3 (UniProt P24557), the log2 fold change in the assay with crizotinib is inactive: 0.092; with doramapimod, inactive: 0.135.
For TAF8, A0A0A0MRR3, the log2 fold change in assay [1] is inactive: 0.077; in the assay with duvelisib it was inactive: -0.196.
For the target TASP1 (UniProt Q9H6P5), the log2 fold change is inactive: 0.087 in the assay with Tubastatin A; inactive: -0.119 in [3]; inactive: 0.112 in [1]; inactive: -0.035 with encorafenib; inactive: 0.103 in [2]; inactive: -0.151 in the assay with alisertib. Moreover, the log2 fold change in assay [4] is inactive: -0.048; in the assay with gefitinib, inactive: -0.046; with lapatinib, inactive: 0.009; in the assay with pictilisib, inactive: -0.217; with crizotinib it was inactive: -0.086; with duvelisib, inactive: 0. Also, the log2 fold change with tozasertib is inactive: -0.002; with doramapimod, inactive: 0.053; with bafetinib it was inactive: -0.235.
On to TERF1 (UniProt P54274), for which the log2 fold change was inactive: 0.04 in the assay with defactinib; inactive: -0.021 with encorafenib; inactive: 0.288 in assay [2]; inactive: -0.064 in the assay with alisertib; inactive: -0.034 in the assay with gefitinib; inactive: -0.023 with crizotinib. The log2 fold change with tozasertib is inactive: 0.099; with doramapimod, inactive: -0.011.
Take TARDBP (UniProt K7EN94): the log2 fold change is inactive: -0.197 in the assay with defactinib, inactive: 0.224 with encorafenib, inactive: 0.04 in [2] and inactive: 0.257 with tozasertib.
As for TEDC1 (UniProt Q86SX3), the log2 fold change with Tubastatin A is inactive: -0.254; in assay [3] it was inactive: 0.038; in [1] it was inactive: 0.051; with encorafenib it was inactive: 0.094; in [2] it was inactive: 0.047; in the assay with alisertib, inactive: -0.019. Also, the log2 fold change in assay [4] was inactive: -0.008; in the assay with gefitinib, inactive: 0.047; in the assay with lapatinib, inactive: -0.064; with crizotinib, inactive: -0.078; with duvelisib it was inactive: 0.159; with tozasertib it was inactive: -0.103. Moreover, the log2 fold change in the assay with doramapimod was inactive: 0.009.
On to TCEAL9 (UniProt Q9UHQ7), for which the log2 fold change was inactive: 0.146 with defactinib; inactive: 0.047 with alisertib; inactive: -0.131 with gefitinib; inactive: -0.043 with crizotinib; inactive: -0.003 with doramapimod.
TCEA2 (UniProt Q15560): the log2 fold change with Tubastatin A was inactive: -0.254; in the assay with encorafenib, inactive: -0.029; in assay [2], inactive: 0.094; with tozasertib it was inactive: 0.106.
Take TAX1BP1 isoform 2 (UniProt Q86VP1): the log2 fold change was inactive: 0.207 with Tubastatin A; inactive: -0.158 in assay [3]; inactive: -0.225 with alisertib; inactive: -0.273 in the assay with gefitinib; inactive: -0.07 with pictilisib; inactive: 0.01 with bafetinib.
In the case of TAPBP isoform 3 (UniProt O15533), the log2 fold change is inactive: -0.063 in assay [3]; inactive: 0.017 in the assay with defactinib; inactive: -0.025 in assay [1]; inactive: -0.004 with encorafenib; inactive: 0.048 in assay [2]; inactive: 0.013 with pictilisib. In addition, the log2 fold change with crizotinib was inactive: -0.086; with duvelisib it was inactive: 0.031; with tozasertib, inactive: -0.052; with doramapimod, inactive: -0.04; with bafetinib, inactive: -0.193.
